Residue numbers refer to the chain shown, from its start. Numbers in names are those of the source. These are yes or no findings as the source states them, for the method shown. In cells and extracts the contact can be indirect. Binding calls can cover weak binding; strength is not graded here. One block for each molecule: values may come before it.
Columns and labels:
Experiment in all cases: co-IP
[1] = molecular target: T1, wildtype (wt) murine meprin α (mouse) (UniProt P28825)
T1 sequence: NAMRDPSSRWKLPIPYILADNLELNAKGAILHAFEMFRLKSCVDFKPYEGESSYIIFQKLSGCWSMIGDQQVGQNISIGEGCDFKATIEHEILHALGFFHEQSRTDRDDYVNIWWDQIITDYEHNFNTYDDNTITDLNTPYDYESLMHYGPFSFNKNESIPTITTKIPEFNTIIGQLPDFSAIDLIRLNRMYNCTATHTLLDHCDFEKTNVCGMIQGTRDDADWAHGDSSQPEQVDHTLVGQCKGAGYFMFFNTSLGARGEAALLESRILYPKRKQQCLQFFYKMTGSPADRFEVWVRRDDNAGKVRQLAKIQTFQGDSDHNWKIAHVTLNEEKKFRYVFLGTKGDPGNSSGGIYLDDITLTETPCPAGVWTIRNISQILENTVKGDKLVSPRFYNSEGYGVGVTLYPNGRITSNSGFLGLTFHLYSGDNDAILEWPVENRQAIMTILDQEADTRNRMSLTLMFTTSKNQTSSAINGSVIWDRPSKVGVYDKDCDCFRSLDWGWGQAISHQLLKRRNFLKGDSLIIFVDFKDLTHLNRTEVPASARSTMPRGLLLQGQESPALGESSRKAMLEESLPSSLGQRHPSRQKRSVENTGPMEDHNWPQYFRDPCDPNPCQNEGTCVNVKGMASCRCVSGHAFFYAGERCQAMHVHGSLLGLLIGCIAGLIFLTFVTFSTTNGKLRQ

[2] = molecular target: T2, catalytically inactive murine meprin α variant E155A (mouse) (UniProt P28825)
T2 sequence: T1 sequence with E91A

[3] = molecular target: C-terminally Myc-FLAG-tagged murine dermokine β (mouse)

- binding [1]: binds
- binding [2]: binds
Molecule: C-terminally Myc-FLAG-tagged murine dermokine β (mouse)

- binding [3]: binds
B1: wildtype (wt) murine meprin α (enzyme, UniProt P28825 65-747)
chain: T1 sequence

- binding [3]: binds
B2: catalytically inactive murine meprin α variant E155A (enzyme, UniProt P28825 65-747)
chain: T1 sequence with E91A

Source: article doi:10.1101/2025.05.23.655724
